Binding data for ten molecules are collected here from publication PMC2868043, “The Yeast Cell Fusion Protein Prm1p Requires Covalent Dimerization to Promote Membrane Fusion” (PLoS ONE, 2010).

Residue numbers refer to the chain shown, from its start. Names may count otherwise. No constants are given. Whether binding was seen depends on the method and setting. For part of these data: Binding seen in cells or lysates may run through a third protein. Some entries that bind do so weakly or less than the wild type. Where a sequence is shown, tags or fusion partners need not be part of it.

Assay [1] concerns the target prm1-C436S-GFP (S. cerevisiae) (UniProt P53835). Briefly: non-reducing SDS-PAGE and Western blot; whole cell lysate, reducing agent omitted from the sample buffer; cells induced with 10 µg/ml α-factor for 90 min (GFP alleles, anti-GFP blot) or with galactose (HA-PRM1, anti-HA blot); shows only SDS-resistant covalent dimers. For orientation: In western blotting, separated proteins are transferred to a membrane and probed.

Assay [2] concerns the target prm1-C277S-GFP (S. cerevisiae) (UniProt P53835). The assay is described as above.
The target in assay [3] is prm1-C6S-GFP (S. cerevisiae) (UniProt P53835). Described as above.
In assay [4] the target is prm1-E104L-GFP (S. cerevisiae) (UniProt P53835). Described as above.
Assay [5] addresses Prm1-GFP (S. cerevisiae) (UniProt P53835). As to the kind of experiment: condition: only reduced with 100 mM DTT before SDS-PAGE; reducing SDS-PAGE and Western blot; whole cell lysate of α-factor induced PRM1-GFP cells, samples reduced with 100 mM DTT before electrophoresis.
The target in assay [6] is T1, Prm1-myc (S. cerevisiae) (UniProt P53835).
T1 sequence: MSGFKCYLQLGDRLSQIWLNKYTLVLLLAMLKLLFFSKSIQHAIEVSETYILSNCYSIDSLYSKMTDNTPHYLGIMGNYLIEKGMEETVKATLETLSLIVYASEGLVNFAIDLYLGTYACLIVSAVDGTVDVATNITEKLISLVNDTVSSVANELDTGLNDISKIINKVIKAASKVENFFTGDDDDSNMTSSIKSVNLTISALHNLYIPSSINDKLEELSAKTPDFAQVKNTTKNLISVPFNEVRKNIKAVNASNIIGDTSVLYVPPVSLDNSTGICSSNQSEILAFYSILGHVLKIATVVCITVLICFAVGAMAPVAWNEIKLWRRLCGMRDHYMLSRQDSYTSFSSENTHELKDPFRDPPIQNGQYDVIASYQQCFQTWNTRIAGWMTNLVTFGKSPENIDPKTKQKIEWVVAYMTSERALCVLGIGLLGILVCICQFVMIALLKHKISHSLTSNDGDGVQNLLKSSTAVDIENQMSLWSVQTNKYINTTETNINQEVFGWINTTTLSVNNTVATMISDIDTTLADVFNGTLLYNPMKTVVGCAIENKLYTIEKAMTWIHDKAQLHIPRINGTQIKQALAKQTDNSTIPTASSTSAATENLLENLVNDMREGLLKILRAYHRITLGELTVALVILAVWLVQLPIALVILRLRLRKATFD
As to the kind of experiment: co-IP; as a4, but Prm1-myc and Prm1-GFP expressed in opposite mating types; about half of the input cells had formed zygotes.

The target in assay [7] is T1, Prm1-myc (S. cerevisiae). As to the kind of experiment: co-IP; tagged PRM1 alleles co-expressed in the same cells, mated on YPD at 30°C for 3 h; membranes solubilised in 1% Triton X-100 (50 mM HEPES, 100 mM KOAc, 2 mM Mg(OAc)2, 1 mM EDTA); α-myc (9E10) agarose, 2 h at 4°C; eluted with 2% SDS; α-myc and α-GFP blots.
Assay [8] deals with T1, Prm1-myc (S. cerevisiae). Briefly: condition: only in SDS (non-reducing SDS-PAGE, covalent dimers only); non-reducing SDS-PAGE and Western blot; blots of input and eluate of the α-myc immunoprecipitation from cells co-expressing PRM1-myc and a GFP-tagged mutant allele (Figure 4B); shows only covalent dimers.
The target of assay [9] is prm1-C302S-GFP (S. cerevisiae) (UniProt P53835). As to the kind of experiment: non-reducing SDS-PAGE and Western blot; whole cell lysate, reducing agent omitted from the sample buffer; cells induced with 10 µg/ml α-factor for 90 min (GFP alleles, anti-GFP blot) or with galactose (HA-PRM1, anti-HA blot); shows only SDS-resistant covalent dimers.
In assay [10] the target is prm1-C438S-GFP (S. cerevisiae) (UniProt P53835). The assay is described as above.
The target in assay [11] is T2, prm1-D112L-myc (S. cerevisiae) (UniProt P53835).
T2 sequence: T1 sequence with D112L
Briefly: co-IP; tagged PRM1 alleles co-expressed in the same cells, mated on YPD at 30°C for 3 h; membranes solubilised in 1% Triton X-100 (50 mM HEPES, 100 mM KOAc, 2 mM Mg(OAc)2, 1 mM EDTA); α-myc (9E10) agarose, 2 h at 4°C; eluted with 2% SDS; α-myc and α-GFP blots.

The target of assay [12] is prm1-C55S-GFP (S. cerevisiae) (UniProt P53835). Briefly: non-reducing SDS-PAGE and Western blot; whole cell lysate, reducing agent omitted from the sample buffer; cells induced with 10 µg/ml α-factor for 90 min (GFP alleles, anti-GFP blot) or with galactose (HA-PRM1, anti-HA blot); shows only SDS-resistant covalent dimers.

B1: prm1-C436S-GFP (protein, UniProt P53835 1-661)
chain: T1 sequence with C436S
As for B1, the binding entry in [1] is reported as “binds”.

B2: prm1-C277S-GFP (protein, UniProt P53835 1-661)
chain: T1 sequence with C277S
As to B2, the binding entry in assay [2] is reported as “binds”.

B3: prm1-C6S-GFP (protein, UniProt P53835 1-661)
chain: T1 sequence with C6S
For B3, the binding result in assay [3] is listed as “binds”.

B4: prm1-E104L-GFP (protein, UniProt P53835 1-661)
chain: T1 sequence with E104L
Consider B4, for which, in assay [4], the binding result is “binds”.

B5: Prm1-GFP (natural protein, S. cerevisiae, UniProt P53835 1-661, looked up)
chain: T1 sequence
notes: Prm1p, mating-specific multipass membrane protein of S. cerevisiae; monomer 73 kD; Glycosylated (sugar modifications); Forms a disulfide-linked homodimer; also called Prm1p; source: S. cerevisiae (W303 derivatives), PRM1 promoter, induced with α-factor or by mating; in whole cell lysate or Triton X-100 solubilised membranes; not shown: GFP, C-terminal, kept
With B5, the binding result in [5] was “no binding”; in assay [6] it was “binds weakly”.

B6: prm1-C120,277,545S-GFP (protein, UniProt P53835 1-661)
chain: T1 sequence with C120S, C277S, C545S
For B6, the binding entry in assay [7] is recorded as “binds”; in assay [8], “no binding”.

B7: prm1-C302S-GFP (protein, UniProt P53835 1-661)
chain: T1 sequence with C302S
For B7, the binding entry in assay [9] is “binds”.

B8: prm1-C438S-GFP (protein, UniProt P53835 1-661)
chain: T1 sequence with C438S
In the case of B8, the binding result in [10] is listed as “binds”.

B9: prm1-D112L-GFP (protein, UniProt P53835 1-661)
chain: T1 sequence with D112L
Turning to B9, the binding result in assay [11] is recorded as “binds weakly”.

B10: prm1-C55S-GFP (protein, UniProt P53835 1-661)
chain: T1 sequence with C55S
In the case of B10, in assay [12], the binding result was “binds”.
